Measured data: PubChem BioAssay AID686943 (Drosophila RNAi Screening Center, 2013)
The deposit covers about 23,000 reagents; below is a random part of those with a known target gene and a result. 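Extra replicates exist only for a retested subset of genes; insulin dose and duration not given; both raised and lowered dpERK matter.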 Names joined by + are all predicted targets of the reagent. Not all columns of the deposit are shown. The record does not give: the amount of reagent, the time to read-out.

Screen: 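Search across the genome for regulators of signalling from receptor tyrosine kinase to ERK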 (primary screen)
System: Drosophila S2R+ haemocyte-like cells expressing YFP-tagged ERK (Rolled)
Reagent: long dsRNA against Drosophila genes
Conditions: insulin stimulation versus unstimulated cells; dose and duration not given
Read-out: 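Antibody staining for doubly phosphorylated ERK divided by ERK-YFP signal, as plate z-scores, in insulin-treated and untreated cells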
Direction: replicate 1, z-score of dpERK with insulin: higher = more active ERK per ERK-YFP after insulin

Gene	DRSC id	replicate 1, z-score of dpERK with insulin
CG12479	DRSC19459	-0.96
usp	DRSC18847	1.66
EMC6	DRSC14386	-0.07
Grip91	DRSC20249	-0.01
CG10874	DRSC00297	-0.78
Shc	DRSC11284	-1.5
CG31086 + CG31323	DRSC14902	0.47
Smyd4-1	DRSC06785	0.16
Cyp1	DRSC20234	-0.99
CR31700	DRSC03682	0.23
CG32195	DRSC09533	-0.25
CG43759	DRSC19464	0.16
CG43759	DRSC19543	-0.93
CG6685	DRSC10695	-0.11
Spn28Db	DRSC22033	-0.02
CG33725	DRSC09183	0.29
asRNA:CR43430 + hts	DRSC07629	0.36
eIF2D	DRSC13916	0.19
CG18766	DRSC15936	1.3
CG12692	DRSC17881	0.16
CG11698	DRSC14355	0.96
ACXB	DRSC00845	-0.42
nej	DRSC18006	1
nej	DRSC18801	-1.95
geminin	DRSC04984	-1.14
CG17134	DRSC02583	0.81
CG33493	DRSC10642	0.28
CG30274	DRSC04171	-0.43
Cpr64Ac	DRSC08462	-0.05
Gr39b	DRSC01848	1.54
CG3841	DRSC02730	0.37
CG31229	DRSC13309	0.52
Rnf146	DRSC11045	-0.88
TMEM216	DRSC16378	0.05
cv-c	DRSC14969	0.01
cv-c	DRSC14970	0.78
cv-c	DRSC14971	-2.75
cv-c	DRSC14972	0.39
cv-c	DRSC14973	0.54
cv-c	DRSC16428	-0.18
elB	DRSC03527	0.26
Sptz	DRSC15758	0.13
CG3793	DRSC01982	-0.27
CG6567 + CG42394	DRSC22241	0.15
lncRNA:CR33218	DRSC22944	-0.86
Mppe	DRSC07296	-0.16
Gapvd1	DRSC19752	1.7
CG5577	DRSC10519	0.82

The list goes on; the last 5 above are carried over.
Gene	DRSC id	replicate 1, z-score of dpERK with insulin
CG6567 + CG42394	DRSC22241	0.15
lncRNA:CR33218	DRSC22944	-0.86
Mppe	DRSC07296	-0.16
Gapvd1	DRSC19752	1.7
CG5577	DRSC10519	0.82
Pmvk	DRSC02032	0.61
CG11356	DRSC19401	0.08
pzg	DRSC11848	-1.97
CG33301	DRSC02778	-0.18
CG3081	DRSC18571	0.29
dgrn	DRSC12154	0.28
hbt + CG43779	DRSC02503	0.49
Usp7	DRSC18909	0.27
Usp7	DRSC19604	0.35
CG5199	DRSC11770	-0.53
Nepl20	DRSC14878	0.15
Pak3	DRSC15017	-1.54
Or56a	DRSC07495	0.74
SecS	DRSC12222	0.64
Obp99d	DRSC15046	0.18
Lint-1	DRSC19822	-1.45
TrissinR	DRSC02334	0.16
TrissinR	DRSC02335	-3.17
TrissinR	DRSC02336	0.49
Drice	DRSC16715	0.31
CG8929	DRSC07298	0.94
CG8929	DRSC22847	0.66
Aptx	DRSC15768	-0.48
CG12521	DRSC09893	0.19
kra	DRSC12320	-3.31
